These are yes or no findings as the source states them, for the method shown. In cells and extracts the contact can be indirect. Some results given as binding are weak or reduced against the parent protein; the word gives no strength.

The chains behind the UniProt entries cited, without tags or fusion partners.
UniProt Q04206: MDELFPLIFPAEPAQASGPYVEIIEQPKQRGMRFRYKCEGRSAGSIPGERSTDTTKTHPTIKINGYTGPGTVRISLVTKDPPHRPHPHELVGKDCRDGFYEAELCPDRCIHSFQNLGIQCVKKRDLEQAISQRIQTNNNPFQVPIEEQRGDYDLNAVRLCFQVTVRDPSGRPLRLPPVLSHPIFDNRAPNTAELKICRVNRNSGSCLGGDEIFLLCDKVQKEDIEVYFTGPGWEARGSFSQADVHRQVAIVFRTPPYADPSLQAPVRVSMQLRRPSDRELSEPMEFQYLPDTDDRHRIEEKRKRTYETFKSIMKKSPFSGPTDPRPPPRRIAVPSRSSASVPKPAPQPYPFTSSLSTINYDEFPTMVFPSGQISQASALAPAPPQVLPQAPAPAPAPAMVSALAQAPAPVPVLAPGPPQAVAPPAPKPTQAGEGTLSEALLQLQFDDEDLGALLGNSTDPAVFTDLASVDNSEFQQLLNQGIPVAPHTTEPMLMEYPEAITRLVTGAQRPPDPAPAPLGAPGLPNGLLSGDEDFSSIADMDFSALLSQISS
UniProt P01100: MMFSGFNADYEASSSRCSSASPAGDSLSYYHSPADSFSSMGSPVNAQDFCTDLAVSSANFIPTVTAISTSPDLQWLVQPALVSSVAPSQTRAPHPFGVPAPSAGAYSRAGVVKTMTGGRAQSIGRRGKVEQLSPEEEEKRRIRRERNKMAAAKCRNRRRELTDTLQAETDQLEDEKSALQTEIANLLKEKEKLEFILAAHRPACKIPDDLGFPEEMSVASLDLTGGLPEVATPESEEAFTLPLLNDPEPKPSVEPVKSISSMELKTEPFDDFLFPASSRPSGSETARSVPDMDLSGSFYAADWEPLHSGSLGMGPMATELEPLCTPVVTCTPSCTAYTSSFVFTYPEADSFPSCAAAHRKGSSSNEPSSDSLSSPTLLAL

In experiment [1] the target is NFκB P65 (human (endogenous in KGN)) (UniProt Q04206). Put plainly: co-IP; control and treated (PMA) KGN cells lysed in RIPA buffer, sonicated, pre-cleared; immunoprecipitated overnight with rabbit antibodies against NFkB p65 or c-Fos, protein A magnetic beads; western blot probed with an FHL2 antibody.
The target of experiment [2] is c-Fos (human (endogenous in KGN)) (UniProt P01100). The description is as above.

B1: four and a half LIM domains 2 (FHL2) (protein, UniProt Q14192 1-279)
chain: MTERFDCHHCNESLFGKKYILREESPYCVVCFETLFANTCEECGKPIGCDCKDLSYKDRHWHEACFHCSQCRNSLVDKPFAAKEDQLLCTDCYSNEYSSKCQECKKTIMPGTRKMEYKGSSWHETCFICHRCQQPIGTKSFIPKDNQNFCVPCYEKQHAMQCVQCKKPITTGGVTYREQPWHKECFVCTACRKQLSGQRFTARDDFAYCLNCFCDLYAKKCAGCTNPISGLGGTKYISFEERQWHNDCFNCKKCSLSLVGRGFLTERDDILCPDCGKDI
In the case of B1, the binding result in experiment [1] and in experiment [2] was “binds” each time.

The values above are taken from publication PMC4973349.
